{"source": "paper PMC11111408", "about": "“Concurrent inhibition of oncogenic and wild-type RAS-GTP for cancer therapy” (Nature, 2024)", "tested_on": "Pa16C cells expressing MEK1 mutants", "test": "Proliferation (Calcein AM) of Pa16C cells expressing MEK1 mutants", "format": "cell-based, human", "key": {"[1]": {"conditions": "MEK1E102-I103del, inhibitor 300.000 nM"}, "[2]": {"conditions": "MEK1S218D/S222D, inhibitor 300.000 nM"}}, "note": "Where “and” joins values, the source holds several entries; their conditions need not be identical. Identical values can stand only once. The source gives many values for each of these; only a part stands here."}
{"smiles": "C#Cc1c(F)ccc2cc(O)cc(-c3ncc4c(N5CC6CCC(C5)N6)nc(OC[C@@]56CCCN5C[C@H](F)C6)nc4c3F)c12", "note": "[MRTX1133, reference compound]", "values": [{"measurement": "Proliferation of Pa16C cells expressing MEK1 mutant constructs", "setting": "MEK1E102-I103del, inhibitor 11.111 nM", "result": "89.2 and 88.5 and 73.09 and 79.09"}, {"measurement": "Proliferation of Pa16C cells expressing MEK1 mutant constructs", "setting": "MEK1E102-I103del, inhibitor 33.333 nM", "result": "81.6 and 79 and 79.45 and 70.91"}, {"measurement": "Proliferation of Pa16C cells expressing MEK1 mutant constructs", "setting": "MEK1E102-I103del, inhibitor 100.000 nM", "result": "76.6 and 64.2 and 72.13 and 59.86"}, {"measurement": "Proliferation of Pa16C cells expressing MEK1 mutant constructs", "setting": "[1]", "result": "68.38 and 60.2 and 68.17 and 51.31"}, {"measurement": "Proliferation of Pa16C cells expressing MEK1 mutant constructs", "setting": "MEK1K57N, inhibitor 11.111 nM", "result": "119.3 and 129.8 and 106.44 and 131.83"}, {"measurement": "Proliferation of Pa16C cells expressing MEK1 mutant constructs", "setting": "MEK1K57N, inhibitor 33.333 nM", "result": "125 and 125.9 and 106.12 and 113.61"}, {"measurement": "Proliferation of Pa16C cells expressing MEK1 mutant constructs", "setting": "MEK1K57N, inhibitor 100.000 nM", "result": "100.9 and 105.3 and 97.72 and 104.41"}, {"measurement": "Proliferation of Pa16C cells expressing MEK1 mutant constructs", "setting": "MEK1K57N, inhibitor 300.000 nM", "result": "91.44 and 89.23"}, {"measurement": "Proliferation of Pa16C cells expressing MEK1 mutant constructs", "setting": "MEK1Q56P, inhibitor 3.704 nM", "result": "122.8 and 117.3 and 118.96"}, {"measurement": "Proliferation of Pa16C cells expressing MEK1 mutant constructs", "setting": "MEK1Q56P, inhibitor 11.111 nM", "result": "103.07 and 114.7 and 124.6 and 101.53"}, {"measurement": "Proliferation of Pa16C cells expressing MEK1 mutant constructs", "setting": "MEK1Q56P, inhibitor 33.333 nM", "result": "90.07 and 113.1 and 117.1 and 94.52"}, {"measurement": "Proliferation of Pa16C cells expressing MEK1 mutant constructs", "setting": "MEK1Q56P, inhibitor 100.000 nM", "result": "81.17 and 110.9 and 101.9 and 96.97"}, {"measurement": "Proliferation of Pa16C cells expressing MEK1 mutant constructs", "setting": "MEK1Q56P, inhibitor 300.000 nM", "result": "70.45 and 77"}, {"measurement": "Proliferation of Pa16C cells expressing MEK1 mutant constructs", "setting": "MEK1S218D/S222D, inhibitor 11.111 nM", "result": "98.22 and 105.68 and 105.56 and 94.99"}, {"measurement": "Proliferation of Pa16C cells expressing MEK1 mutant constructs", "setting": "MEK1S218D/S222D, inhibitor 33.333 nM", "result": "91.91 and 105.1 and 110.14 and 94.7"}, {"measurement": "Proliferation of Pa16C cells expressing MEK1 mutant constructs", "setting": "MEK1S218D/S222D, inhibitor 100.000 nM", "result": "92.41 and 101.61 and 95.02 and 87.17"}, {"measurement": "Proliferation of Pa16C cells expressing MEK1 mutant constructs", "setting": "[2]", "result": "80.27 and 87.77 and 106.23 and 72.96"}, {"measurement": "Proliferation of Pa16C cells expressing MEK1 mutant constructs", "setting": "MEK1WT, inhibitor 3.704 nM", "result": "80.73 and 60.14"}, {"measurement": "Proliferation of Pa16C cells expressing MEK1 mutant constructs", "setting": "MEK1WT, inhibitor 11.111 nM", "result": "55.7 and 50.1 and 39.85 and 72.69 and 39.08"}, {"measurement": "Proliferation of Pa16C cells expressing MEK1 mutant constructs", "setting": "MEK1WT, inhibitor 33.333 nM", "result": "36.7 and 41.6 and 30.08 and 43.46 and 28.32"}, {"measurement": "Proliferation of Pa16C cells expressing MEK1 mutant constructs", "setting": "MEK1WT, inhibitor 100.000 nM", "result": "29.7 and 29.6 and 28.6 and 30.61 and 24.23"}, {"measurement": "Proliferation of Pa16C cells expressing MEK1 mutant constructs", "setting": "MEK1WT, inhibitor 300.000 nM", "result": "21.32 and 19.79 and 23.54"}]}
{"smiles": "O=C(Nc1ccc2[nH]nc(-c3ccncc3)c2c1)[C@@H]1CCN(CC(=O)N2CCN(c3ccc(-c4ncccn4)cc3)CC2)C1", "note": "[SCH772984]", "values": [{"measurement": "Proliferation of Pa16C cells expressing MEK1 mutant constructs", "setting": "[1]", "result": "12.6 and 13.3 and 9.3"}, {"measurement": "Proliferation of Pa16C cells expressing MEK1 mutant constructs", "setting": "MEK1Q56P, inhibitor 11.111 nM", "result": "98.6 and 103.2 and 83.8 and 53.6"}, {"measurement": "Proliferation of Pa16C cells expressing MEK1 mutant constructs", "setting": "[2]", "result": "8.9 and 15.1 and 8.4 and 11.1"}, {"measurement": "Proliferation of Pa16C cells expressing MEK1 mutant constructs", "setting": "MEK1WT, inhibitor 33.333 nM", "result": "21.9 and 15.2 and 11.4"}]}
